Some of the results follow. Single values are uncertain, as repeats are few or missing.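 The apoptosis fraction was the count of cleaved-PARP antibody-stained nuclei relative to all DNA-stained nuclei, imaged in 1,536-well plates. Screening doses were set so most cells survived, and baseline and induced cleaved-PARP levels vary greatly across cell lines.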
How the values were obtained:
Assay in all cases: cleaved PARP positive nuclei fraction relative to DMSO control; melanoma cells; higher = more apoptosis
Conditions in all cases: library dose: low library concentration; 72 h
WM115 = test system: WM115
WM1716 = test system: WM1716
WM1745 = test system: WM1745
WM3526 = test system: WM3526
WM3619 = test system: WM3619
WM451Lu = test system: WM451Lu

Row | SMILES | cleaved PARP positive nuclei fraction (WM115) | cleaved PARP positive nuclei fraction (WM1716) | cleaved PARP positive nuclei fraction (WM1745) | cleaved PARP positive nuclei fraction (WM3526) | cleaved PARP positive nuclei fraction (WM3619) | cleaved PARP positive nuclei fraction (WM451Lu)
1 | CC(=O)c1c(C)c2cnc(Nc3ccc(N4CCNCC4)cn3)nc2n(C2CCCC2)c1=O [palbociclib] + Cc1ccc(NC(=O)c2cccc(N(C)C)c2)cc1NC(=O)c1ccc(O)cc1 [ZM336372] (first compound 0.04 µM, partner dose 2 µM) | 107% | 65.4% | 123% | 48.2% | 134% | 28.7%
2 | O=C(CCCCCCC(=O)Nc1ccccc1)NO [vorinostat] + CCCCCCCCCCCC1=C(O)C(=O)C=C(O)C1=O [Embelin] (first compound 0.08 µM, partner dose 1.2 µM) | 21.4% | 67.7% | 109% | 68.1% | 74.1% | 82.2%
3 | O=C(Nc1cccc(Cl)c1)Nc1ncc(CCNc2ncnc3ccsc23)s1 + COc1cc2c(Oc3ccc4[nH]c(C)cc4c3F)ncnc2cc1OCCCN1CCCC1 [cediranib] (first compound 0.0008 µM, partner dose 0.4 µM) | 80.5% | 77.7% | 86.7% | 63.6% | 84.2% | 158%
4 | C[C@@H]1CCN(C(=O)CC#N)C[C@@H]1N(C)c1ncnc2[nH]ccc12 + CCN(CC)CCCCNc1ncc2cc(-c3cc(OC)cc(OC)c3)c(NC(=O)NC(C)(C)C)nc2n1 [PD173074] (first compound 1 µM, partner dose 0.1 µM) | 89.5% | 28.5% | 101% | 63.1% | 75.7% | 219%
5 | Cn1c(Nc2ccc(C(F)(F)F)cc2)nc2cc(Oc3ccnc(-c4ncc(C(F)(F)F)[nH]4)c3)ccc21 + COc1ccc2c(c1)CCC1C2CCC2(C)C(NCCCCCCN3C(=O)C=CC3=O)CCC12 [U73122] (first compound 0.08 µM, partner dose 0.4 µM) | 597% | 190% | 168% | 152% | 114% | 56.3%
6 | Nc1cccc2c1CN(C1CCC(=O)NC1=O)C2=O (stereo unspecified) [lenalidomide] + Cn1cc(/C=C2\C(=O)Nc3cccnc32)c2ccccc21 [GW441756] (first compound 1 µM, partner dose 0.4 µM) | 236% | 94.3% | 104% | 91.9% | 89.1% | 120%
7 | Cc1ccc(NC(=O)c2cccc(N(C)C)c2)cc1NC(=O)c1ccc(O)cc1 + COC(=O)c1sccc1S(=O)(=O)Nc1ccc(Nc2ccccc2)cc1OC [GSK0660] (first compound 2 µM, partner dose 1 µM) | 253% | 61.4% | 100% | 69.8% | 86.8% | 108%
8 | OCc1c[nH]c2ccccc12 [Indole-3-carbinol] + O=C(Nc1cccc(Cl)c1)Nc1ncc(CCNc2ncnc3ccsc23)s1 [SNS314] (first compound 0.8 µM, partner dose 0.0008 µM) | 80.8% | 39.6% | 71.4% | 49.5% | 67.2% | 81.1%
9 | Nc1cccc2c1CN(C1CCC(=O)NC1=O)C2=O (stereo unspecified) [lenalidomide] + COc1cc2ncnc(Nc3ccc(Oc4ccccc4)cc3)c2cc1OC [SrcI1] (first compound 1 µM, partner dose 2 µM) | 102% | 38.7% | 108% | 240% | 71% | 52.3%
10 | CC(C)(C)c1cnc(CSc2cnc(NC(=O)C3CCNCC3)s2)o1 + CN(C)S(=O)(=O)c1ccc2c(c1)/C(=C/c1cc3c([nH]1)CCCC3)C(=O)N2 [SU6656] (first compound 0.01 µM, partner dose 0.4 µM) | 318% | 143% | 95.9% | 53.7% | 111% | 68.8%
11 | CC(C)(C)c1cnc(CSc2cnc(NC(=O)C3CCNCC3)s2)o1 + CCCCCCCCCCCC1=C(O)C(=O)C=C(O)C1=O [Embelin] (first compound 0.01 µM, partner dose 1.2 µM) | 149% | 48.6% | 113% | 120% | 68.6% | 47%
12 | NC(=O)Nc1cc(-c2cccc(F)c2)sc1C(=O)N[C@H]1CCCNC1 + CCCCCCCCCCCC1=C(O)C(=O)C=C(O)C1=O [Embelin] (first compound 0.02 µM, partner dose 1.2 µM) | 189% | 60% | 103% | 73.2% | 72.4% | 70.9%
13 | Cc1ccc(NC(=O)c2cccc(N(C)C)c2)cc1NC(=O)c1ccc(O)cc1 + COc1cc2ncnc(Nc3ccc(Oc4ccccc4)cc3)c2cc1OC [SrcI1] (first compound 2 µM, partner dose 2 µM) | 135% | 15.2% | 114% | 77.3% | 78.5% | 158%
14 | Cn1c(Nc2ccc(C(F)(F)F)cc2)nc2cc(Oc3ccnc(-c4ncc(C(F)(F)F)[nH]4)c3)ccc21 + COC(=O)c1sccc1S(=O)(=O)Nc1ccc(Nc2ccccc2)cc1OC [GSK0660] (first compound 0.08 µM, partner dose 1 µM) | 1300% | 237% | 155% | 151% | 225% | 148%
15 | C[C@]1(c2nc3c(C(N)=O)cccc3[nH]2)CCCN1 [Veliparib] + CN(NC(=O)CC(=O)NN(C)C(=S)c1ccccc1)C(=S)c1ccccc1 [STA4783] (first compound 1.4 µM, partner dose 0.006 µM) | 88.5% | 172% | 272% | 68.7% | 258% | 242%
16 | C=CCn1c(=O)c2cnc(Nc3ccc(N4CCN(C)CC4)cc3)nc2n1-c1cccc(C(C)(C)O)n1 + COc1ccc(-c2ccc3c(N4CCOCC4)nc(N4C[C@@H](C)O[C@@H](C)C4)nc3n2)cc1CO [KU0063794] (first compound 0.02 µM, partner dose 0.02 µM) | 174% | 102% | 118% | 71.8% | 148% | 102%
17 | O=C(CCCCCCC(=O)Nc1ccccc1)NO [vorinostat] + O=C(O)c1ccc(-c2c[nH]c3ncc(-c4ccccc4)cc23)cc1C1CCCC1 [GSK650394] (first compound 0.08 µM, partner dose 0.16 µM) | 65.9% | 99% | 80.9% | 68.2% | 87% | 160%
18 | Cn1nnc2c(C(N)=O)ncn2c1=O [temozolomide] + O=S(=O)(c1ccccc1)N(CC(F)(F)F)c1ccc(C(O)(C(F)(F)F)C(F)(F)F)cc1 [T0901317] (first compound 2 µM, partner dose 1.4 µM) | 95.2% | 58% | 109% | 70.1% | 72.3% | 28.3%
19 | C[C@]1(c2nc3c(C(N)=O)cccc3[nH]2)CCCN1 [Veliparib] + CO[C@@H]1[C@H](N(C)C(=O)c2ccccc2)C[C@H]2O[C@]1(C)n1c3ccccc3c3c4c(c5c6ccccc6n2c5c31)C(=O)NC4 [Midostaurin] (first compound 1.4 µM, partner dose 0.08 µM) | 229% | 295% | 108% | 59.9% | 95.2% | 54.2%
20 | NC(=O)Nc1cc(-c2cccc(F)c2)sc1C(=O)N[C@H]1CCCNC1 + O=S(=O)(c1ccccc1)N(CC(F)(F)F)c1ccc(C(O)(C(F)(F)F)C(F)(F)F)cc1 [T0901317] (first compound 0.02 µM, partner dose 1.4 µM) | 235% | 147% | 121% | 90.4% | 120% | 29.7%
21 | OCc1c[nH]c2ccccc12 [Indole-3-carbinol] + Cn1c(Nc2ccc(C(F)(F)F)cc2)nc2cc(Oc3ccnc(-c4ncc(C(F)(F)F)[nH]4)c3)ccc21 [CHIR265] (first compound 0.8 µM, partner dose 0.08 µM) | 328% | 85.6% | 130% | 115% | 178% | 65.2%
22 | O=C(Nc1cccc(Cl)c1)Nc1ncc(CCNc2ncnc3ccsc23)s1 + c1cc(-c2cnn3cc(-c4ccc(OCCN5CCCCC5)cc4)cnc23)ccn1 [Dorsomorphin] (first compound 0.0008 µM, partner dose 0.4 µM) | 40.1% | 80.3% | 107% | 133% | 84.3% | 38.9%
23 | C=CCNC1=C2C[C@@H](C)C[C@H](OC)[C@H](O)[C@@H](C)/C=C(\C)[C@H](OC(N)=O)[C@@H](OC)/C=C\C=C(/C)C(=O)NC(=CC1=O)C2=O [Tanespimycin] + CC(C)CCN1c2nc(Nc3cc(F)c(O)c(F)c3)ncc2N(C)C(=O)C1C [BID1870] (first compound 0.002 µM, partner dose 0.2 µM) | 133% | 404% | 91.1% | 87.9% | 122% | 146%
24 | Clc1ccc(Nc2nnc(Cc3ccncc3)c3ccccc23)cc1 [vatalanib] + NC(=O)Nc1cc(-c2cccc(F)c2)sc1C(=O)N[C@H]1CCCNC1 [AZD7762] (first compound 2 µM, partner dose 0.02 µM) | 73.4% | 83.3% | 101% | 270% | 130% | 56.6%
25 | COCC[n+]1c2c(n(Cc3cnccn3)c1C)C(=O)c1ccccc1C2=O + O=C(Nc1ccccc1)c1cc([N+](=O)[O-])ccc1Cl [GW9662] (first compound 0.0004 µM, partner dose 2 µM) | 202% | 83.5% | 96.2% | 194% | 130% | 86.7%
26 | C#Cc1cccc(Nc2ncnc3cc(OCCOC)c(OCCOC)cc23)c1 [erlotinib] + Oc1nc(-c2ccc(C(F)(F)F)cc2)nc2c1CSCC2 [XAV939] (first compound 0.8 µM, partner dose 2 µM) | 55% | 112% | 132% | 70.3% | 77.8% | 88.8%

From no. 1 up to 7, as listed above:
Row | SMILES | cleaved PARP positive nuclei fraction (WM115) | cleaved PARP positive nuclei fraction (WM1716) | cleaved PARP positive nuclei fraction (WM1745) | cleaved PARP positive nuclei fraction (WM3526) | cleaved PARP positive nuclei fraction (WM3619) | cleaved PARP positive nuclei fraction (WM451Lu)
1 | CC(=O)c1c(C)c2cnc(Nc3ccc(N4CCNCC4)cn3)nc2n(C2CCCC2)c1=O [palbociclib] + Cc1ccc(NC(=O)c2cccc(N(C)C)c2)cc1NC(=O)c1ccc(O)cc1 [ZM336372] (first compound 0.04 µM, partner dose 2 µM) | 107% | 65.4% | 123% | 48.2% | 134% | 28.7%
2 | O=C(CCCCCCC(=O)Nc1ccccc1)NO [vorinostat] + CCCCCCCCCCCC1=C(O)C(=O)C=C(O)C1=O [Embelin] (first compound 0.08 µM, partner dose 1.2 µM) | 21.4% | 67.7% | 109% | 68.1% | 74.1% | 82.2%
3 | O=C(Nc1cccc(Cl)c1)Nc1ncc(CCNc2ncnc3ccsc23)s1 + COc1cc2c(Oc3ccc4[nH]c(C)cc4c3F)ncnc2cc1OCCCN1CCCC1 [cediranib] (first compound 0.0008 µM, partner dose 0.4 µM) | 80.5% | 77.7% | 86.7% | 63.6% | 84.2% | 158%
4 | C[C@@H]1CCN(C(=O)CC#N)C[C@@H]1N(C)c1ncnc2[nH]ccc12 + CCN(CC)CCCCNc1ncc2cc(-c3cc(OC)cc(OC)c3)c(NC(=O)NC(C)(C)C)nc2n1 [PD173074] (first compound 1 µM, partner dose 0.1 µM) | 89.5% | 28.5% | 101% | 63.1% | 75.7% | 219%
5 | Cn1c(Nc2ccc(C(F)(F)F)cc2)nc2cc(Oc3ccnc(-c4ncc(C(F)(F)F)[nH]4)c3)ccc21 + COc1ccc2c(c1)CCC1C2CCC2(C)C(NCCCCCCN3C(=O)C=CC3=O)CCC12 [U73122] (first compound 0.08 µM, partner dose 0.4 µM) | 597% | 190% | 168% | 152% | 114% | 56.3%
6 | Nc1cccc2c1CN(C1CCC(=O)NC1=O)C2=O (stereo unspecified) [lenalidomide] + Cn1cc(/C=C2\C(=O)Nc3cccnc32)c2ccccc21 [GW441756] (first compound 1 µM, partner dose 0.4 µM) | 236% | 94.3% | 104% | 91.9% | 89.1% | 120%
7 | Cc1ccc(NC(=O)c2cccc(N(C)C)c2)cc1NC(=O)c1ccc(O)cc1 + COC(=O)c1sccc1S(=O)(=O)Nc1ccc(Nc2ccccc2)cc1OC [GSK0660] (first compound 2 µM, partner dose 1 µM) | 253% | 61.4% | 100% | 69.8% | 86.8% | 108%
